# Results taken from the supplement of paper PMC3334620.
# Whole data set: some 33,000 sequences, median “E-score (-0.5 to 0.5)” near -0.0034, cut for the highest 2% near 0.25. The list shows a part of the results.
# Molecular target: T1, Yap3 (UniProt P38749)
# T1 sequence: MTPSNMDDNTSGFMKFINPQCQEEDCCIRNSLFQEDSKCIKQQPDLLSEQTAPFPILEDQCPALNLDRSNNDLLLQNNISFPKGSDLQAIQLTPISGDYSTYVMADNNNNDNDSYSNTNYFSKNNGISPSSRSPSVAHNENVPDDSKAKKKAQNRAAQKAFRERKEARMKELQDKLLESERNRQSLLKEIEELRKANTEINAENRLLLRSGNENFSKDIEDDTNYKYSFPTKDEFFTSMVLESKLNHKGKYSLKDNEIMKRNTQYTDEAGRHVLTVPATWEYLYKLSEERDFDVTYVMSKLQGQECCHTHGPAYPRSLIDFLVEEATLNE
# Assay: PBM E-score (8-mer binding enrichment) (E-score (-0.5 to 0.5)); higher = stronger / more preferred TF binding
# Details: protein concentration: 100 nM; construct: GST-full length
# In short: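 Masliner-normalised scans of fluorescent anti-GST signal were the basis for scoring. That signal came from GST-tagged yeast transcription factors applied at about 100-200 nM to double-stranded universal all-10-mer Agilent arrays on fresh or once-stripped slides. Each ungapped eight-base word, pooled with its reverse complement, received an E-score from the Universal PBM Analysis Suite.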
row,Sequence,PBM E-score
1,CTCGCCGC,-0.0489
2,CGTAGAGA,0.00862
3,ACCGGAGA,0.0527
4,GCCCTCAA,-0.139
5,CTGTCGTA,0.0338
6,CGATATAC,0.0779
7,GGTCCCTA,-0.116
8,CGCGTTGA,-0.0193
9,CCGAAGAC,-0.0282
10,GGAAGCCC,-0.334
11,CTCTAGCC,-0.204
12,ATCCAGGC,-0.138
13,CAATTCGC,0.238
14,GCGTACCC,-0.161
15,AGGAGACA,0.102
16,CTGGGTTC,-0.0258
17,GTAAGAGA,0.00971
18,ACCTTTAT,-0.0322
19,GTCTAAGA,0.0273
20,GTAGGTTA,0.0693
21,GCATCGGC,-0.193
22,GGCGGAGA,-0.0553
23,ATCCACGC,-0.117
24,GTAATGAC,0.0925
25,CTCTATTC,0.0496

row,Sequence,PBM E-score
1,GTTTTACA,0.0198
2,CTTCTCAA,-0.0635
3,CACTGCGA,0.0223
4,ACGTGCTA,0.0232
5,AGTAATGG,0.179
6,ATGGTTGG,-0.109
7,GAACCTTA,0.155
8,AGGACCCG,-0.109
9,ATTTCGTG,0.109
10,CTTGTAAA,0.107
11,GCAGGGAA,0.049
12,CTTCTACA,0.0486
13,CGCCAACA,0.0908
14,GGGGAGGA,-0.273
15,AAAACCGT,0.0377
16,AGCTTCCT,-0.0053
17,AATCGGAA,0.211
18,GAGTATCA,-0.0124
19,TCGCATCA,0.0999
20,CAGTAGTA,0.0225
21,ATGATCAG,0.0252
22,AAGTGCTC,-0.204
23,CTCAGTGA,-0.0771
24,GCTGTAGA,-0.0692
25,ACAATTCT,0.0509

row,Sequence,PBM E-score
1,ATGTGAAA,0.134
2,ACCACCAA,0.0182
3,ATTTGTAA,0.373
4,AATATATA,0.229
5,CAGCCCTA,0.00827
6,CTAACAGC,-0.0488
7,AACGCAGT,-0.0967
8,ATAGCCGA,0.074
9,TCGTCCCA,-0.0108
10,GGGATCTA,-0.0775
11,ATGCTGTA,0.0217
12,GAGTATCC,0.00458
13,CATAGACC,0.0365
14,GGGTTCAC,-0.148
15,GCTCGAAC,0.0117
16,ACACTTAC,0.0812
17,AGTCAAGG,-0.064
18,GACGTCCA,0.125
19,TATGTTGA,0.233
20,CCAGGACA,0.0041
21,GATGGTCC,-0.109
22,ACGCAATA,0.165
23,GGCTCCAC,-0.184
24,GCGAGGAA,-0.0709
25,GGGCCGAA,-0.196

# Another view of part of the listing above.
row | Sequence | PBM E-score
7 | AACGCAGT | -0.0967
24 | GCGAGGAA | -0.0709

# Another view of some results above:
row	Sequence	PBM E-score
14	GGGTTCAC	-0.148
15	GCTCGAAC	0.0117

# The list continues:

row,Sequence,PBM E-score
1,CGATCTCA,0.0754
2,AAACTTGT,-0.014
3,ATCCGCAT,0.12
4,CTAGAACC,-0.0352
5,AACGCCCG,0.0232
6,CATGAAGC,-0.102
7,ACGTTCTG,-0.0681
8,ACATTGCA,0.0303
9,CCCCGAGG,-0.19
10,CGGTTAGA,-0.0778
11,CGTACGTC,-0.0833
12,GTACCATA,-0.068
13,AGAGGTTG,-0.209
14,AAATAGAC,0.179
15,AAGCAACA,0.0314
16,CAGGGTGC,-0.158
17,GATGAGAA,0.0962
18,CCGTCCGC,-0.237
19,ATAAAGCG,0.254
20,AGTTCGCG,0.105
21,ACTCACAC,-0.0492
22,AACAGAGG,-0.0698
23,GTCCAAAC,-0.171
24,ACACTGAC,0.103
25,CCCGATTC,-0.00335

row,Sequence,PBM E-score
1,AACAAAGT,0.221
2,ATAAATCC,0.0986
3,ATTTGAAC,0.0499
4,CGCCGAGA,-0.0405
5,AAAGGGCG,-0.0936
6,TACGCCAA,-0.211
7,CCCGCCAC,-0.00354
8,CTTCGTCA,0.111
9,CGATACAC,-0.0355
10,AATATATG,0.304
11,AACAGTCT,-0.212
12,AATTTTCT,0.15
13,GATCTAAC,0.0181
14,CGTCAGCA,-0.00789
15,AGTACTCC,-0.112
16,ACACGGGC,-0.0903
17,AACGAACC,0.185
18,TACAGTCA,0.0978
19,CCCCTCCG,-0.27
20,AAGTGTTG,0.181
21,AACCAATA,0.103
22,ATCATTAA,0.207
23,TGAGAGCA,0.0596
24,ACAGCGAA,0.0633
25,TGCCCCCA,-0.1

row,Sequence,PBM E-score
1,CCAGTTGC,-0.248
2,GATCCATC,-0.0764
3,CATTGGGA,0.00323
4,AATCAATA,0.151
5,ACCGTTCG,0.12
6,CGTGGCTA,-0.171
7,CATCAGCA,-0.0232
8,CCCCGGTC,-0.271
9,CGCTCTGA,-0.105
10,ACGAAGAC,-0.0817
11,AGGTCCAC,-0.341
12,ACTTAACG,-0.103
13,CACGCTGC,-0.159
14,GATCTCTA,-0.0106
15,CCTTCGAC,-0.159
16,CAAGAGGC,-0.15
17,ATGTTCGC,-0.102
18,AAAGCGGT,-0.0262
19,AAAATAGT,0.12
20,AGCCCAAG,-0.189
21,ATCTCGTC,0.0786
22,CCACTGCG,-0.0433
23,CAGTGTTC,0.135
24,AAATCTGT,0.0609
25,CCTGATAC,0.224

row,Sequence,PBM E-score
1,GAGCGGCC,-0.198
2,ACAAGCGA,0.184
3,GCTTGTGA,-0.156
4,CCAGTCTA,-0.13
5,CGGTAGTA,-0.0312
6,CAATTATA,0.167
7,CGCCTTTA,0.0625
8,AAATCTAC,0.2
9,GCTGCCTA,-0.0151
10,ACGGGTGC,0.079
11,CTGCTCTA,0.0428
12,ATAGATGG,-0.127
13,GCGTGCTA,-0.296
14,CATGTTCC,-0.0249
15,CACCTATG,-0.101
16,ACCTGTCA,-0.0551
17,ACACCTAG,-0.0883
18,CGGCACGA,0.089
19,ACGGTTGA,0.0142
20,AGTACCCG,-0.0217
21,CAAAGGTC,-0.153
22,AAAATTCA,0.242

# Exported tab-delimited: part of the list above.
row	Sequence	PBM E-score
11	CTGCTCTA	0.0428
12	ATAGATGG	-0.127
